Measurements taken from publication PMC10112905.

Chains of the proteins cited; added tags and fusions are not shown. Lines headed by an entry give the natural chain unless they say otherwise; changes in a name come on top.
UniProt Q99KJ8: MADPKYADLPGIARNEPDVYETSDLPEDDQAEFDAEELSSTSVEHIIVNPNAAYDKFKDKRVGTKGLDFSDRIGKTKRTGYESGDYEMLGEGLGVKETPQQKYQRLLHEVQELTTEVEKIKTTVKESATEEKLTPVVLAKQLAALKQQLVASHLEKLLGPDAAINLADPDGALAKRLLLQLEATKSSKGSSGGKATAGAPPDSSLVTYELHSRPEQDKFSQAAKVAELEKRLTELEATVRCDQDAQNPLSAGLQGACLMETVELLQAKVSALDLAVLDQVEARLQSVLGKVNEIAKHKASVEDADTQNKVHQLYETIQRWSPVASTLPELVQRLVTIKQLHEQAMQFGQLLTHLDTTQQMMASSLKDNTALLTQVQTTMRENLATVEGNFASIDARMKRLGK
UniProt O35685: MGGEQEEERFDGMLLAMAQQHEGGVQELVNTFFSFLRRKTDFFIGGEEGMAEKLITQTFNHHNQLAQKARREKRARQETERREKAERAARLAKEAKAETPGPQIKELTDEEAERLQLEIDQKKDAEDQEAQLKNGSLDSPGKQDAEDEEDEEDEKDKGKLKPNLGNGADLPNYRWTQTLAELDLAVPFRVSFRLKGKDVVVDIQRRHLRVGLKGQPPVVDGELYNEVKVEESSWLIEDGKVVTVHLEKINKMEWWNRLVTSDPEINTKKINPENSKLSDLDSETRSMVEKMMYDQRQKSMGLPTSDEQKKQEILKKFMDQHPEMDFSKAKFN
UniProt P0C0S6: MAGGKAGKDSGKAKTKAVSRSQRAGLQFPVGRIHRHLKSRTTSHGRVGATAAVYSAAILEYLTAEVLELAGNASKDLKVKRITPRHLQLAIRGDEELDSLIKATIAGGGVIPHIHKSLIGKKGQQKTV

T1: spastin (mouse (endogenous in testis)) (UniProt Q9QYY8)
T1 sequence: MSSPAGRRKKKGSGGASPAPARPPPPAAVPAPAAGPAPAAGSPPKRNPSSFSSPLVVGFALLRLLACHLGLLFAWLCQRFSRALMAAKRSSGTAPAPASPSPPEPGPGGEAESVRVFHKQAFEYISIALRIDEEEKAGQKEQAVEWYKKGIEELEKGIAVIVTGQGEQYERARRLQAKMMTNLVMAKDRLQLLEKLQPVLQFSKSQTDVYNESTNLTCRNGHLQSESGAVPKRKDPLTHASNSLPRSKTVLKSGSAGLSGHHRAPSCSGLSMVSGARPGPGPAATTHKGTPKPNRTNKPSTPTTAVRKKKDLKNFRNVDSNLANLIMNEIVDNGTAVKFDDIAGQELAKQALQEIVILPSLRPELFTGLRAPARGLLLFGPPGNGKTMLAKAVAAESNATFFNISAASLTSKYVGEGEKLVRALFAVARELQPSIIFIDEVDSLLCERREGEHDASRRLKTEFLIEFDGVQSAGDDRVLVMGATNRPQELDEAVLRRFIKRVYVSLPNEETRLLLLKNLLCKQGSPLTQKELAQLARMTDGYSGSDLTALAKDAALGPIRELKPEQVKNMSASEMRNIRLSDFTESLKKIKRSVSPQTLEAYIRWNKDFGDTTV

B1: SEPT2 (protein, UniProt P42208 1-361)
chain: MSKQQPTQFINPETPGYVGFANLPNQVHRKSVKKGFEFTLMVVGESGLGKSTLINSLFLTDLYPERIIPGAAEKIERTVQIEASTVEIEERGVKLRLTVVDTPGYGDAINCRDCFKTIISYIDEQFERYLHDESGLNRRHIIDNRVHCCFYFISPFGHGLKPLDVAFMKAIHNKVNIVPVIAKADTLTLKERERLKKRILDEIEEHSIKIYHLPDAESDEDEDFKEQTRLLKASIPFSVVGSNQLIEAKGKKVRGRLYPWGVVEVENPEHNDFLKLRTMLITHMQDLQEVTQDLHYENFRSERLKRGGRKVENEDMNKDQILLEKEAELRRMQEMIARMQAQMQMQMQGGDSDSGALGQHV

Target: T1, spastin (mouse (endogenous in testis))
Assay: affinity purification with mass spectrometry; endogenous SPAST precipitated from pre-cleared wild-type mouse testis lysate (1% NP-40 in PBS, protease inhibitors; 4 mg lysate) with SPAST antibody (Abcam ab31850, 5 ug) covalently coupled to AminoLink Plus resin, overnight at 4°C; control: antibody with non-amine reactive control resin; eluate digested with trypsin, LC-MS/MS; n=3

binding, binds:
DCTN2 (from UniProt Q99KJ8 1-402)
NUDC (from UniProt O35685 1-332)
histone H2A.Z (from UniProt P0C0S6 1-128)
B1

No constants are given. Whether binding was seen depends on the method and setting. Binding seen in cells or lysates may run through a third protein. A yes stands for co-enrichment or nearness to the bait. Other partners may have been found.
